Measurements from article PMC10703791.
These are yes or no findings as the source states them, for the method shown. Binding seen in cells or lysates may run through a third protein. Binding can be weak; no strength is given.

Amino acid sequences for entries named in this document (tags omitted). A change or cut given only in a name is not applied to a line headed by its entry.
UniProt Q62035: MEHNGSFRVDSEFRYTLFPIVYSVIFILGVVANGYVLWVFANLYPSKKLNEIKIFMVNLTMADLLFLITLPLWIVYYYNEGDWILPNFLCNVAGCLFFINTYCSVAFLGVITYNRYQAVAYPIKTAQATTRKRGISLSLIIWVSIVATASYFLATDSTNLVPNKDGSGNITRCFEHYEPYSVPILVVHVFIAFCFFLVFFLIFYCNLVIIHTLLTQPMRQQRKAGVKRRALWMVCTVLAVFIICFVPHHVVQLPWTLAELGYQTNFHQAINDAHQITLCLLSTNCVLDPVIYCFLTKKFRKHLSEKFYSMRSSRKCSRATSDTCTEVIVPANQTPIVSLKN
UniProt P55086: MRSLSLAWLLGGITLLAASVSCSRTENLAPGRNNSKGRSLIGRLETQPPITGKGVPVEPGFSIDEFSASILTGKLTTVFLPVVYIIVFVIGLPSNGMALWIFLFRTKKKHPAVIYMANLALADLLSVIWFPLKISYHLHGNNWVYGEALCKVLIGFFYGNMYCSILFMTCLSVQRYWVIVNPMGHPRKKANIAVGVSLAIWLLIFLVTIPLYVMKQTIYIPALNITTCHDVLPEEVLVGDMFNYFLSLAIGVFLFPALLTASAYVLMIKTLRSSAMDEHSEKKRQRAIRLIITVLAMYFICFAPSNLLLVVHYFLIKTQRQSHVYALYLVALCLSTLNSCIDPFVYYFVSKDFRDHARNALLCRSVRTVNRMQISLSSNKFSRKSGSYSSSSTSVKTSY

Target: Platelet-activating factor receptor (mouse (endogenous in RAW 264.7)) (UniProt Q62035)
Test: co-IP; RAW 264.7 lysates in RIPA buffer (100 ug protein); anti-PAFR antibody on Protein A/G magnetic beads, overnight at 4 °C; blot with anti-PAR2 and anti-PAFR; cells treated for 20 min with PBS, C-PAF (100 nM), SLIGRL-NH2 (50 uM) or both; normal rabbit IgG as control

binding: binds
Substance: Protease-activated receptor 2 (from UniProt P55086)
